## Primary screen of a compound library

Each number is a percent effect as filed. The record does not define 0% and 100%; most values in the screen are far below 50% and negative numbers occur (in some assays of this library far below -100). This is an unselected part of the compounds tested.

Mtb growth Cornell: 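Whole-cell assay for inhibitors of Mycobacterium tuberculosis growth, labelled Cornell in the record; the read-out is not stated. The concentration is filed as 10 mM, unlikely as a test dose, so the dose is not known. The record gives no direction; compounds strong in two other growth screens of this library score well above the rest, so higher reads as stronger inhibition. Of about 53,000 compounds tested this way, about 900 (1.7%) reached 50% or more in at least one test.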
Mtb heat-shock: 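Assay on Mycobacterium tuberculosis, filed only as a heat shock assay from Cornell; the read-out is not stated. The concentration is filed as 10 mM, unlikely as a test dose, so the dose is not known. The record gives no direction; compounds that gave an IC50 in retests scored well above the rest, so higher reads as stronger inhibition. Size under these conditions: about 69,000 compounds, about 930 of them at 50% or above in at least one test.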

compound: COc1cnc(CSc2nnc(C)s2)cc1OCC(=O)NC1CCCC1
Mtb growth Cornell: 19.43
Mtb heat-shock: -22.04

compound: Cn1c(N2CC[C@H](O)C2)nc2cc(C(N)=O)ccc21
Mtb heat-shock: 4.826

compound: COc1cccc(-c2ncc3c(n2)N(C)CCN(CCN(C)C)C3=O)c1
Mtb growth Cornell: -84.21
Mtb heat-shock: -17.73

compound: CC(NC(=O)NCC1(O)CCC1)c1ccc(OCC2CC2)c(F)c1 (stereo unspecified)
Mtb growth Cornell: -4.036
Mtb heat-shock: -20.44

compound: O=C(NCc1nn(-c2ccccc2)c2c1CCC2)NC1CCOCC1
Mtb heat-shock: 7.849

compound: c1csc(-c2nc(CN3CCn4c(nnc4C4CC4)C3)co2)c1
Mtb heat-shock: -13.63

compound: CCc1noc(CNCCn2cc(C)cn2)n1
Mtb heat-shock: -4.837

compound: CC(C)c1nccc(-c2nccn2CCN(C)S(C)(=O)=O)n1
Mtb growth Cornell: -12.6
Mtb heat-shock: -19.39

compound: O=C(O)C(F)(F)F.O=C(O)C(F)(F)F.[H][C@@]12CN(Cc3cccnc3)CCO[C@]1([H])CN(C(C)=O)C2
Mtb growth Cornell: 20.5
Mtb heat-shock: -47.04

compound: CCC1COCCN1C(=O)NCc1nccn1CCc1ccccc1 (stereo unspecified)
Mtb growth Cornell: -17.58
Mtb heat-shock: 8.919

compound: CC(C)c1nn(C)c(N(C)C)c1CNCC(O)c1ccccc1 (stereo unspecified)
Mtb growth Cornell: 39.56
Mtb heat-shock: -5.204

compound: CC(C)c1ccc(CN2CCC(CNS(=O)(=O)C3CC3)C2)cc1 (stereo unspecified)
Mtb heat-shock: 0.01805

compound: CCc1c(C)nc2ccccc2c1N1CCC(C(=O)NC)CC1
Mtb heat-shock: -31.6

compound: CCCc1nc(C(=O)N2CCN(S(=O)(=O)CC)CC2)cs1
Mtb growth Cornell: 15.31
Mtb heat-shock: 4.84

compound: O=C(O)C(F)(F)F.[H][C@@]12CN(CC)C[C@]1([H])[C@@H](OC)CCN2C(=O)c1cc(C)nn1CC
Mtb growth Cornell: -6.88
Mtb heat-shock: -31.68

compound: CNC(=O)Cc1ccc(NC(=O)NCc2ncc(C)s2)cc1
Mtb growth Cornell: -13.06
Mtb heat-shock: -10.27

compound: Cc1ccc2c(c1)c(CNC(=O)C1CC(=O)N(C3CC3)C1)nn2C (stereo unspecified)
Mtb growth Cornell: -22.06
Mtb heat-shock: -2.639

compound: CCC(=O)N1CCCC(C(=O)N2CCN(c3cnn(C)c(=O)c3)CC2)C1 (stereo unspecified)
Mtb growth Cornell: -21.22
Mtb heat-shock: 15.06

compound: CCN(Cc1ccc2c(c1)OCO2)C(=O)Cn1cccnc1=O
Mtb growth Cornell: 7.487
Mtb heat-shock: -17.53

compound: CC(C)c1cc(NCC2(Cn3cccn3)CC2)nc(N)n1
Mtb growth Cornell: 7.594
Mtb heat-shock: -16.77

compound: Cc1cccc(NC(=O)c2sc(C)nc2C)n1
Mtb growth Cornell: 2.5
Mtb heat-shock: 2.357

compound: O=c1ccc(-n2ccnc2)nn1CCNS(=O)(=O)c1ccc(Cl)s1
Mtb growth Cornell: 23.43
Mtb heat-shock: 34.59

compound: COc1ccccc1C1SCC(=O)Nc2c1c(=O)[nH]n2C1CCOCC1 (stereo unspecified)
Mtb growth Cornell: -21.37
Mtb heat-shock: 0.866

compound: Fc1ccccc1CN1CCC(c2n[nH]c(C3CC3)n2)CC1
Mtb growth Cornell: 11.67
Mtb heat-shock: -14.12

compound: COc1cc(F)ccc1N1CCN(Cc2nnc(C3CC3)o2)CC1
Mtb growth Cornell: -0.411
Mtb heat-shock: 6.226

compound: Cc1nc[nH]c1-c1nccn1CCCN(C)C
Mtb growth Cornell: -0.5945
Mtb heat-shock: -17.39

compound: CCC(CC)c1cc(CNC(=O)N2CCCC(C(=O)NC)C2)on1 (stereo unspecified)
Mtb heat-shock: -2.683

compound: COc1cccc(CN(C)Cc2cc(C#N)ccc2F)c1OC
Mtb heat-shock: -19

compound: CN1CCCc2cc(CNC(=O)c3cccnc3O)ccc21
Mtb growth Cornell: -11.4
Mtb heat-shock: -1.588

compound: COC(=O)CCNC(=O)c1c[nH]cc1-c1cccc(OC)c1
Mtb heat-shock: 3.3

compound: CSCc1noc(CNS(=O)(=O)c2cccc(C(=O)NC3CC3)c2)n1
Mtb growth Cornell: -0.8553
Mtb heat-shock: 2.559

compound: CC(C(=O)Nc1ncccn1)N1CCC(n2ccnc2)CC1 (stereo unspecified)
Mtb growth Cornell: -8.251
Mtb heat-shock: -13.86

The first 2 entries again:

* COc1cnc(CSc2nnc(C)s2)cc1OCC(=O)NC1CCCC1 | Mtb growth Cornell: 19.43%; Mtb heat-shock: -22.04%
* Cn1c(N2CC[C@H](O)C2)nc2cc(C(N)=O)ccc21 | Mtb heat-shock: 4.826%

From ChEMBL document CHEMBL3988442, “University of Dundee, Small-Polar-MMV Screening Library” (2021).